Data as given in PubChem BioAssay AID1159584 (Peter MacCallum Cancer Centre, 2016)
The deposit covers about 18,000 reagents; this is a part drawn at random. Not stated in the record: the amount of reagent, the time to read-out.

Test: 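Knock-downs that harm CDH1-null cells more than parental MCF10A cells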 (primary screen)
Cell system: human MCF10A breast epithelial cells, parental and CDH1-null
Reagents: siRNA against human genes
Measurement: 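Cell viability by CellTiter-Glo ATP luminescence, each line scaled to the mean of mock wells across plates, then CDH1-null over parental ratio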
Direction: CDH1-null / parental viability ratio: higher = CDH1-null cells survive relatively better than parental; CDH1-null viability vs mock: higher = more viable CDH1-null cells; parental viability vs mock: higher = more viable parental cells

| gene symbol | CDH1-null / parental viability ratio | CDH1-null viability vs mock (fraction of mock) | parental viability vs mock (fraction of mock) |
| --- | --- | --- | --- |
| C8orf44 | 1.31 | 0.88 | 0.67 |
| RNF25 | 0.96 | 0.94 | 0.98 |
| ZNF563 | 0.76 | 0.51 | 0.67 |
| SYT12 | 0.75 | 0.66 | 0.88 |
| LSM11 | 0.99 | 0.68 | 0.69 |
| WDTC1 | 1.3 | 0.7 | 0.54 |
| PCDHB2 | 1.07 | 0.92 | 0.86 |
| MEN1 | 1 | 0.79 | 0.79 |
| BEND2 | 1.17 | 1.03 | 0.88 |
| ARMH3 | 0.97 | 0.68 | 0.7 |
| NDUFB11 | 1.07 | 0.94 | 0.88 |
| IGSF22 | 0.9 | 1.07 | 1.19 |
| HERC6 | 1.48 | 0.77 | 0.52 |
| OR6B3 | 1.07 | 0.62 | 0.58 |
| ZNF571 | 1.09 | 0.86 | 0.79 |
| OTUD7A | 0.76 | 0.22 | 0.29 |
| OR5I1 | 1.15 | 0.78 | 0.68 |
| HIF1A | 0.82 | 0.66 | 0.8 |
| CDKAL1 | 0.73 | 0.61 | 0.84 |
| FAM89A | 1.11 | 0.59 | 0.53 |
| LRRC18 | 0.96 | 0.44 | 0.46 |
| KIF5C | 1.03 | 1.07 | 1.04 |
| PABPN1 | 0.79 | 0.54 | 0.68 |
| ASIP | 1.65 | 0.66 | 0.4 |
| FASTKD2 | 0.95 | 0.78 | 0.82 |
| UQCR10 | 1.13 | 1.02 | 0.9 |
| KCNH4 | 1.13 | 0.88 | 0.78 |
| TERF1 | 0.98 | 0.86 | 0.88 |
| GOSR1 | 1.06 | 1 | 0.94 |
| MED7 | 1.06 | 0.5 | 0.47 |
| TENT2 | 1.1 | 0.86 | 0.78 |
| EXOG | 0.74 | 0.7 | 0.94 |
| GSTCD | 0.84 | 0.64 | 0.76 |
| KRT5 | 1.07 | 0.8 | 0.75 |
| GCNT3 | 0.98 | 0.86 | 0.88 |
| P2RY12 | 0.76 | 0.67 | 0.88 |
| APOBR | 0.9 | 0.57 | 0.63 |
| OSBPL1A | 1.16 | 1.02 | 0.88 |
| OR52B6 | 1.12 | 0.9 | 0.8 |
| PPP1R14B | 1.38 | 0.91 | 0.66 |
| SLC38A9 | 1.15 | 1.05 | 0.91 |
| MTO1 | 1.07 | 0.92 | 0.86 |
| OR2H2 | 0.86 | 0.88 | 1.02 |
| TJP2 | 0.87 | 0.82 | 0.94 |
| RPRD1B | 1.17 | 0.94 | 0.8 |
| RPL18A | 1.27 | 0.38 | 0.3 |
